Data as given in the supplement of paper PMC9578143, “Small-Molecule Ebselen Binds to YTHDF Proteins Interfering with the Recognition of N^6-Methyladenosine-Modified RNAs” (ACS Pharmacology & Translational Science, 2022).
The other results are listed elsewhere or left out. Part of the spread comes from offsets between plates or batches.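 Hits were defined as a z-score below −3.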

Biological target: T1, YTHDF1 YTH domain (aa 365-554) (UniProt Q9BYJ9)
T1 sequence (whole entry): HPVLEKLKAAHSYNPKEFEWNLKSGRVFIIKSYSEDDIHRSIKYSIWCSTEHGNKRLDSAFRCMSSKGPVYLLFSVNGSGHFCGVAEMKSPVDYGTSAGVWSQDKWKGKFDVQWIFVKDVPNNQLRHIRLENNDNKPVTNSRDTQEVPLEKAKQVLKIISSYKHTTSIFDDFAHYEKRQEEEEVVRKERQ
Assay: tryptophan fluorescence intensity z-score (mean); higher = higher fluorescence, less quenching (negative = binding / quenching)
Settings: 10 µM

Tryptophan fluorescence intensity z-score, inactive:
O=c1[nH]cnc2c1ncn2[C@@H]1O[C@H](CO)[C@@H](O)[C@H]1O (plate: M 21-22) 0.246
CC(C)Cn1c(=O)n(C)c(=O)c2[nH]cnc21 (plate: M 23-24) 0.453
CCCCOc1cc(CC2CNC(=O)N2)ccc1OC (stereo not given) (plate: M 23-24) 0.394
CCOC(=O)c1c(C)cc(O)cc1O (plate: M 15-16) -0.00647
CN(C)CCCN1c2ccccc2Sc2ccc(Cl)cc21 (plate: M 1-2) -0.465
O=c1ccc2ccccc2o1 (plate: M 1-2) 0.262
NCCOB(c1ccccc1)c1ccccc1 (plate: M 23-24) 0.268
CC1(C)C=Cc2cc3ccc(=O)oc3cc2O1 (plate: M 15-16) -0.0407
Nc1ccn([C@@H]2O[C@H](CO)[C@@H](O)[C@@H]2O)c(=O)n1 (plate: M 1-2) -0.314
O=C(O)[C@H](O)[C@@](O)(Cc1ccc(O)cc1)C(=O)O (plate: M 15-16) 0.684
COc1ccnc(C[S+]([O-])c2nc3cc(OC(F)F)ccc3[nH]2)c1OC (stereo not given) (plate: M 11-12) -0.184
CO[C@H]1C[C@H](O[C@H]2[C@H](C)[C@@H](O[C@@H]3O[C@H](C)C[C@H](N(C)C)[C@H]3O)[C@@H](C)C[C@@]3(CO3)C(=O)[C@H](C)[C@@H](O)[C@@H](C)[C@@H](C)OC(=O)[C@@H]2C)O[C@@H](C)[C@@H]1O (plate: M 5-6) -0.596
Nc1ccc(S(=O)(=O)Nc2ccccn2)cc1 (plate: M 5-6) 0.0508
CC(=O)N[C@@H](C=O)[C@@H](O)[C@H](O)[C@H](O)CO (plate: M 23-24) 0.608
CC(=O)c1c(O)cc(O)cc1O (plate: M 17-18) -0.384
CC(=O)O[C@@H]1CC2C(C)(CC[C@H](O)C2(C)C)C2CC[C@]3(C)C(=CC(=O)O[C@H]3c3ccoc3)C21C (stereo partly drawn) [3beta-HYDROXYDEOXODIHYDRODEOXYGEDUNIN] (plate: M 15-16) 0.103
CC1(C)[C@@H](O)CC[C@]2(C)[C@H]3C(=O)C=C4[C@H]5C[C@@](C)(C(=O)O)CC[C@]5(C)CC[C@@]4(C)[C@]3(C)CC[C@@H]12 [18alpha-GLYCYRRHETINICACID] (plate: M 17-18) 0.646
CCCCN1CCCCC1C(=O)Nc1c(C)cccc1C (stereo not given) (plate: M 9-10) -0.242
CCOC(=O)NNc1nncc2ccccc12 (plate: M 21-22) 0.342
CC(C)(C)c1ccc(C(O)CCCN2CCC(C(O)(c3ccccc3)c3ccccc3)CC2)cc1 (stereo not given) (plate: M 9-10) -0.645
Cc1cc(=O)oc2c(O)c(O)ccc12 (plate: M 17-18) -0.651
CC(COc1ccccc1)NC(C)C(O)c1ccc(O)cc1 (stereo not given) (plate: M 3-4) -0.135
CC12CCCC(O)(C1)C1CC(C)(C)C1CC2 (stereo not drawn) [beta-CARYOPHYLLENEALCOHOL] (plate: M 17-18) 0.477
CC(=O)[C@H]1CC[C@H]2[C@@H]3CC=C4C[C@@H](O)CC[C@]4(C)[C@H]3CC[C@]12C (plate: M 23-24) 0.0957
CN(C)c1ccc(C(=C2C=CC(=[N+](C)C)C=C2)c2ccc(N(C)C)cc2)cc1 (plate: M 3-4) -1.62
O=c1ccn([C@@H]2O[C@H](COP(=O)(O)OP(=O)(O)OP(=O)(O)O)[C@@H](O)[C@H]2O)c(=O)[nH]1 (plate: M 21-22) 0.171
CON (plate: M 23-24) 0.741
CCN(CCO)CCCC(C)Nc1ccnc2cc(Cl)ccc12 (stereo not given) (plate: M 9-10) -0.281
O=C(O)c1ccccc1 (plate: M 7-8) 0.242
O=C(O)c1cccnc1C(=O)O (plate: M 21-22) -0.164
CCOc1ccc(NC(C)=O)cc1 (plate: M 5-6) 0.172
CN1CCC[C@@H]1CCO[C@](C)(c1ccccc1)c1ccc(Cl)cc1 (plate: M 1-2) 0.107
CC(C)(C)NCC(O)c1cc(O)cc(O)c1 (stereo not given) (plate: M 5-6) -0.0435
COc1ccc2c(c1)O[C@@H]1COc3cc(OC)c(OC)cc3[C@@H]1C2=O (plate: M 15-16) 0.0832
CCOC(=O)[N-]c1c[n+](N2CCOCC2)no1 (plate: M 5-6) -0.338
CC[N+](CC)(CC)CCOc1cccc(OCC[N+](CC)(CC)CC)c1OCC[N+](CC)(CC)CC (plate: M 3-4) -0.352
C#C[C@]1(O)CC[C@H]2[C@@H]3CCC4=C(CCC(=O)C4)[C@H]3CC[C@@]21C (plate: M 3-4) 0.201
COc1cc(OC)c(-c2c(OC)cc(OC)cc2OC)c(OC)c1 (plate: M 17-18) 0.127
CCc1oc2ccccc2c1C(=O)c1cc(Br)c(O)c(Br)c1 (plate: M 11-12) -0.706
CC/C(=C(\c1ccccc1)c1ccc(OCCN(C)C)cc1)c1ccccc1 (plate: M 5-6) 0.162
COc1cc2oc3cc(OC)c(OC)c(CC=C(C)C)c3c(=O)c2c(OC)c1CC=C(C)C (plate: M 21-22) -0.11
CN[C@@H]1[C@H](O[C@H]2[C@H](O[C@H]3[C@H](O)[C@@H](O)[C@H](NC(=N)N)[C@@H](O)[C@@H]3NC(=N)N)O[C@@H](C)[C@]2(O)CO)O[C@@H](CO)[C@H](O)[C@H]1O (plate: M 1-2) 0.348
NCc1ccc(S(N)(=O)=O)cc1 (plate: M 3-4) -0.046
O=C(O)C1(C(=O)O)CCC1.[NH2-].[NH2-].[Pt+2] (plate: M 7-8) 0.431
O=c1c(O)c(-c2ccc(O)c(O)c2)oc2cc(O)cc(O)c12 (plate: M 17-18) -0.583
CC1=C(C/C=C(\C)CCC[C@H](C)CCC[C@H](C)CCCC(C)C)C(=O)c2ccccc2C1=O (plate: M 13-14) 0.435
COCCc1ccc(OCC(O)CNC(C)C)cc1 (stereo not given) (plate: M 3-4) 0.0503
COc1ccc(C(=O)c2ccccc2O)c(O)c1 (plate: M 1-2) -0.569
CC(C)Cc1ccc(C(C)C(=O)O)cc1 (stereo not given) (plate: M 3-4) 0.0328
COC1=CC(=O)C=C(OC)C1=O (plate: M 15-16) 0.111
CC(O)(P(=O)(O)O)P(=O)(O)O (plate: M 11-12) 0.288
CC(=O)O[C@H]1C[C@@H](OC(C)=O)C(C)(C)[C@@H]2C[C@@H](OC(C)=O)[C@@]3(C)C4=CC(=O)O[C@@H](c5ccoc5)[C@]4(C)CC[C@@H]3[C@@]12C (plate: M 13-14) 0.339
O=C1[C@H](CC[C@H](O)c2ccc(F)cc2)[C@@H](c2ccc(O)cc2)N1c1ccc(F)cc1 (plate: M 9-10) 0.0819
Cc1cnc(C(=O)NCCc2ccc(S(=O)(=O)NC(=O)NC3CCCCC3)cc2)cn1 (plate: M 11-12) -0.72
C=C1C2CC[C@@]3(C)[C@H](c4ccoc4)OC(=O)C[C@]13O[C@H]1CC(=O)C(C)(C)[C@H](C(O)C(=O)OC)[C@@]21C (stereo not given in full) (plate: M 13-14) 0.805
CCc1ccc2c(O)c3c(cc2c1C(=O)OC)C(=O)c1c(O)ccc(O)c1C3=O (plate: M 15-16) 0.528
CN1CCC(=C2c3ccccc3CCc3sccc32)CC1 (plate: M 9-10) -0.931
CN1CCOC(c2ccccc2)c2ccccc2C1 (stereo not given) (plate: M 7-8) 0.462
N=C(N)NCCCCN (plate: M 19-20) 0.469
CCCCNc1ccc(C(=O)OCCN(C)C)cc1 (plate: M 5-6) 0.0189
CC1(C)CC[C@]2(C(=O)O)CC[C@]3(C)C(=CCC4[C@@]5(C)CC[C@@H](O)C(C)(C)C5CC[C@]43C)C2C1 (stereo not given in full) (plate: M 13-14) 0.135
CCN(CC)CCOc1ccc(C(=C(Cl)c2ccccc2)c2ccccc2)cc1 (plate: M 1-2) -0.0283
COc1c2ccoc2cc2oc(=O)ccc12 (plate: M 17-18) 0.203
CN(C)CCOC(c1ccc(Cl)cc1)c1ccccn1 (stereo not given) (plate: M 1-2) 0.353
O=C1CCc2ccc(OCCCCN3CCN(c4cccc(Cl)c4Cl)CC3)cc2N1 (plate: M 11-12) -0.137
C[C@@H]1CC[C@@]23CCC4(C)[C@@](C=CC5[C@@]6(C)CCC(=O)C(C)(C)C6CC[C@]54C)(OC2=O)C3[C@H]1C (stereo not given in full) (plate: M 17-18) 0.251
NC(=O)NC1NC(=O)NC1=O (stereo not given) (plate: M 5-6) 0.213
O=C1C(O)=C([C@H]2CC[C@H](c3ccc(Cl)cc3)CC2)C(=O)c2ccccc21 (plate: M 9-10) -0.0505
CC(=O)OC(C)(C)[C@@H]1Cc2cc3ccc(=O)oc3cc2O1 (plate: M 19-20) 0.304
Cc1ccccc1C(OCCN(C)C)c1ccccc1 (stereo not given) (plate: M 3-4) -0.187

Part of the list above in order of molecular weight, falling:
Tryptophan fluorescence intensity z-score, inactive:
CCN(CC)CCOc1ccc(C(=C(Cl)c2ccccc2)c2ccccc2)cc1 (plate: M 1-2) -0.0283
CC(=O)OC(C)(C)[C@@H]1Cc2cc3ccc(=O)oc3cc2O1 (plate: M 19-20) 0.304
CC(C)Cn1c(=O)n(C)c(=O)c2[nH]cnc21 (plate: M 23-24) 0.453

Taken from the results shown for reference:
Tryptophan fluorescence intensity z-score, inactive:
O=C(O)C1(C(=O)O)CCC1.[NH2-].[NH2-].[Pt+2] (plate: M 7-8) 0.431
O=c1c(O)c(-c2ccc(O)c(O)c2)oc2cc(O)cc(O)c12 (plate: M 17-18) -0.583
